No constants are given. Whether binding was seen depends on the method and setting. Binding calls can cover weak binding; strength is not graded here.
Target: A5 domain (immobilized acceptor on the IAsys biosensor) (UniProt P08648)
Test: optical biosensor (IAsys), A5 immobilized

By UniProt entry, the sequences of proteins in these tests, tags left out. Where a name states a change or a piece, a line headed by the entry shows the natural chain unless it says otherwise.
UniProt P08648: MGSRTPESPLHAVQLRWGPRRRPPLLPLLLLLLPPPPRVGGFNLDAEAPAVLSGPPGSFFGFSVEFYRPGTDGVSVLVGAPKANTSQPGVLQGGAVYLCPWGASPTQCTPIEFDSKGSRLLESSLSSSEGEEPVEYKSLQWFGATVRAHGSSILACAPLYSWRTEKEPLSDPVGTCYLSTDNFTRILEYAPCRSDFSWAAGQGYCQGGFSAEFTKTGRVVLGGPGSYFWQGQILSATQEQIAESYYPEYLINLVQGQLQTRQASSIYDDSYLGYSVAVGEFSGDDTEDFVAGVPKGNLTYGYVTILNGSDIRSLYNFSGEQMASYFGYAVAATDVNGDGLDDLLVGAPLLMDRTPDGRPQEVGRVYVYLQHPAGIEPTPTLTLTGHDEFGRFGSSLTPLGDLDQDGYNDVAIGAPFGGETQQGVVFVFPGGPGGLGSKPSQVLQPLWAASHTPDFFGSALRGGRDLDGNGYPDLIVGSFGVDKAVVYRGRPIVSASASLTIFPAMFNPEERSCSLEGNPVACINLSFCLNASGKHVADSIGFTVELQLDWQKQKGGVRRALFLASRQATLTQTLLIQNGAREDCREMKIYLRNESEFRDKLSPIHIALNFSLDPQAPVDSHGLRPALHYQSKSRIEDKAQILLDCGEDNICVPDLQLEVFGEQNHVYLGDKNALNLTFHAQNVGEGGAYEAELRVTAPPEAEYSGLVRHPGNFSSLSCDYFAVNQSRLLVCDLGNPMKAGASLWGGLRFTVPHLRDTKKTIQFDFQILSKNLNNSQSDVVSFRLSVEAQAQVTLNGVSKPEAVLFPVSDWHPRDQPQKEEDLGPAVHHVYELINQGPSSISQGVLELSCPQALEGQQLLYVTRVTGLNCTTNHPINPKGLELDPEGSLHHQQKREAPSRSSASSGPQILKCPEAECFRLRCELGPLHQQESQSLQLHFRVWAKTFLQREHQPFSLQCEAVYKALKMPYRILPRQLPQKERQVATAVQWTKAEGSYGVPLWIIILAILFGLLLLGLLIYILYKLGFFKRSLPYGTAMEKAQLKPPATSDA

- binding: binds
B1: perlecan Domain V (recombinant, C-terminal 6×His tag) (ligand)
chain: EIKITFRPDSADGMLLYNGQKRVPGSPTNLANRQPDFISFGLVGGRPEFRFDAGSGMATIRHPTPLALGHFHTVTLLRSLTQGSLIVGDLAPVNGTSQGKFQGLDLNEELYLGGYPDYGAIPKAGLSSGFIGCVRELRIQGEEIVFHDLNLTAHGISHCPTCRDRPCQNGGQCHDSESSSYVCVCPAGFTGSRCEHSQALHCHPEACGPDATCVNRPDGRGYTCRCHLGRSGLRCEEGVTVTTPSLSGAGSYLALPALTNTHHELRLDVEFKPLAPDGVLLFSGGKSGPVEDFVSLAMVGGHLEFRYELGSGLAVLRSAEPLALGRWHRVSAERLNKDGSLRVNGGRPVLRSSPGKSQGLNLHTLLYLGGVEPSVPLSPATNMSAHFRGCVGEVSVNGKRLDLTYSFLGSQGIGQCYDSSPCERQPCQHGATCMPAGEYEFQCLCRDGFKGDLCEHEENPCQLREPCLHGGTCQGTRCLCLPGFSGPRCQQGSGHGIAESDWHLEGSGGNDAPGQYGAYFHDDGFLAFPGHVFSRSLPEVPETIELEVRTSTASGLLLWQGVEVGEAGQGKDFISLGLQDGHLVFRYQLGSGEARLVSEDPINDGEWHRVTALREGRRGSIQVDGEELVSGRSPGPNVAVNAKGSVYIGGAPDVATLTGGRFSSGITGCVKNLVLHSARPGAPPPQPLDLQHRAQAGANTRPCPSHHHHHH
notes: domain: domain V; Secreted from transfected 293FT cells and purified on Ni beads; also called DV; endorepellin

Source: US20100168025A1 (TEXAS A AND M UNIVERSITY SYSTEM, published 2010)
